This is an account of results in PMC8190858.

Protein sequences, listed by entry. Tags and fused reporters are not part of them.
UniProt P62258: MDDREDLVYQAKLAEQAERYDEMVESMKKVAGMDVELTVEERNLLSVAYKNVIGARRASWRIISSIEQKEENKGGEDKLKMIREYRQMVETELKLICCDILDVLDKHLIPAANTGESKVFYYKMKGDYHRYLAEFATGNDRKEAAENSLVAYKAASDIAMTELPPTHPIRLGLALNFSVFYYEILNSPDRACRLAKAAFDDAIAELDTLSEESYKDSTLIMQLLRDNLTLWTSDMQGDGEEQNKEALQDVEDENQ

In the experiment the target is T1, Human epididymis protein 4 (HE4) (human (endogenous in CAOV3 and ES2)) (UniProt Q14508).
T1 sequence: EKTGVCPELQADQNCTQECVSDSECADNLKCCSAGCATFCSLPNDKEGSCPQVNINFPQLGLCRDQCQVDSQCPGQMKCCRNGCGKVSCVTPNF
As to the kind of experiment: co-IP; lysates of CAOV3 and ES2 cells (500 μg, sonicated in lysis buffer) incubated overnight at 4 °C with 2 μg anti-YWHAE or anti-HE4 antibody, Protein A/G Plus-Agarose beads 6 h; IgG of the same species as negative control; western blot. In general terms: In western blotting, separated proteins are transferred to a membrane and probed.

No constants are given. Whether binding was seen depends on the method and setting. Binding seen in cells or lysates may run through a third protein. Some results given as binding are weak or reduced against the parent protein; the word gives no strength.

For “tyrosine 3-monooxygenase/tryptophan 5-monooxygenase activation protein epsilon (YWHAE) (from UniProt P62258 1-255)”, the binding entry is “binds”.
